{"source": "patent US20210177879A1", "about": "“VITAMIN D RECEPTOR AGONIST” (Guanghzou University of Chinese Medicine, priority 2018, published 2021)", "system": "1,25(OH)2D3", "experiment": "Determination of serum 1,25(OH)2D3 content", "assay_type": "in vivo, Balb/c mice", "settings": "normal animal+monotropein group vs blank group", "note": "“Also recorded” adds a separate entry of the source."}
{"compound": "O=C(O)C1=CO[C@@H](O[C@@H]2O[C@H](CO)[C@@H](O)[C@H](O)[C@H]2O)[C@H]2[C@@H]1C=C[C@]2(O)CO", "note": "[monotropein]", "values": [{"measurement": "serum level of 1,25(OH)2D3 (endogenous VD3) in normal animals", "value": "no secretory effect; also recorded: down-regulated in the animals of the blank group, but there was no statistical difference"}]}
